Strings that start with PEPTIDE1 are HELM notation: dots part the residues, brackets hold end groups and non-standard residues.
Experiment: general procedure: Boc solid-phase peptide synthesis; oxime resin (4-BMA precursor); BOC-amino acid symmetric anhydrides formed with diisopropylcarbodiimide
Details: whole synthesis

Row | Substance | difficulty met | isolated yield (overall, based on the loading of the first amino acid on the resin)
1 | Boc-L-Tyrosyl(t-Butylether)-L-Prolyl-L-Phenylalanyl-p-Benzoyl-L-phenylalanine Amide | the deletion dipeptide BOC-Tyr(t-Bu)-Bpa-NH2 | –
2 | PEPTIDE1{L.K.[Bpa].K.K.L.L.K.L.L.K.K.L.L.K.L.G}$$$$V2.0 | – | 19%

Reference: US4762881 (dated 1988)
